Screen size: about 52,000 sequences; about 210 (0.4%) were called active.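 The calls were made as follows: active = gene whose silencing raises cell survival under the drug, median off-target-corrected z-score across its silencing RNAs 2 or more; inactive = the rest.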 Some of the results follow.

The test can be described thus: Resistance to Poly (ADP-Ribose) Polymerase inhibitor: Gene Identification via Genome-wide siRNA Screen. Conditions: mouse BRCA2 R2336H ES cells, olaparib, CellTiter-Glo viability; stronger effect = higher value. The essentials: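 Mouse BRCA2 R2336H ES cells were reverse-transfected with siRNA (20 nM final), treated at 48 h with 500 nM olaparib, and read by CellTiter-Glo after 72 h. Scores: MAD-based z per siRNA, median per gene, seed off-target correction.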
A general note: In ATP-based viability assays light output follows the ATP content of the culture.
On to GGAAAUGACCACAAUAUUUTT against Plaa, for which the z-score was inactive: -0.0931.

In the case of GGACAACAAAGGGAGAUUCTT against Kctd12b, the z-score was inactive: -0.941. Regarding GGCUCUUAAUACCACCUACTT against Egr1, the z-score was inactive: -0.507.

As for “GGACAUACAAAUCAGGUGGTT against 5830404H04Rik”, the z-score is inactive: 0.749. As to GCUUAAGUUCCUUCUUCUCTT against Tas2r144, the z-score is inactive: 0.266. On to CGUAGCACUUCUUCUCUUATT against Dnclic2, for which the z-score was inactive: 1.72. In the case of “GCCGUUUCACAGAGUACUCTT against 2610020N02Rik”, the z-score was inactive: -2.16. For CGACUUGAACUCUAUGGCGTT against Ascl1, the z-score was inactive: 0.883.

Take CGAUUAUCAACUCAUAUGCTT against Eif5a2: the z-score is inactive: 0.218. As for ACGUAGGUUAACUGAACAUTT against Zfp187, the z-score is inactive: -1.06. “CCCUAUGAUUCCGACAACCTT against 4831417L10”: the z-score was inactive: 0.824. Then GGUAUGCAUGAACAUAAUGTT against Prlpo, with inactive: -0.21; and GGAUCAAAAGGUGAAUGCUTT against V1re10, with inactive: 1.61.

Regarding GCAUUAGUCAUUGUUAACGTT against Hsd17b4, the z-score is inactive: 0.608.

GGUGUAAAAAUGUGAAAGATT against Suv39h2: the z-score was inactive: 0.44.

For CGAGACUCUAUCUUUGUCCTT against Siat6, the z-score is inactive: -0.0696.

In the case of GCUACGAGAGGUCAUUUCCTT against Chrnb1, the z-score is active: 2.48. For GGUUAAGGGCAAAAUUCUGTT against Rpl21, the z-score is inactive: -3.09. Turning to “CCACUGCACUGUAAAUCAATT against 2900070E19Rik”, the z-score is inactive: 1.28. Regarding GGACUCUGAAUCAACUUGGTT against Stx7, the z-score is inactive: 0.388.

On to CGACUACAAUGGGCUCAAGTT against Kifc3, for which the z-score is inactive: -1.3. As to GGAGGUAGAAUGUUAUGUGTT against Gja9, the z-score was inactive: 0.747. For GGCAACACAAGUGAGAAUGTT against BC026432, the z-score is inactive: -0.267.

For the sequence GGAAGCUUUUGUCGGUCCATT against Hap1, the z-score was inactive: -1.12. For GGCCAAUGCACUCCUGAUCTT against Gna11 the value was inactive: -1.05. GGGUCUCCUCUCUAAUCUATT against Psp: the z-score was inactive: -0.886. In the case of GGAUUGAUAAUGAACUUCGTT against Slc13a5, the z-score is inactive: 2.17. Then “GGAAGAUGAUACAAGCAAATT against A930002I21Rik”, with inactive: 0.425; and GGUAGAGCAAGACCUUCCUTT against P4ha3, with inactive: -0.609. With CCUAAAGUCUCUGAAUCAGTT against Fyb, the z-score is inactive: 0.943. On to GGAUUUGGCAACAGACUUUTT against Ryr2, for which the z-score was inactive: -0.339. For the sequence CCCAGUUGCUAUGCUUGACTT against Defb37, the z-score was inactive: -0.505.

Consider GCCUGUAGACACAAAAUUUTT against Akp3, for which the z-score was inactive: 0.51.

In the case of GGAGAUACUUCGAUACUUUTT against Baz1b, the z-score is inactive: -1.2. As to “GGCCAAUUAACUAUGAAUUTT against 4833405L16Rik”, the z-score is inactive: 0.764.

As to GGGCUAGACAUCAUCACCATT against Trit1, the z-score is inactive: -0.817. For CCGGAAGACUGGUAUUCUCTT against Nr1h4 the value was inactive: 2.66; for CCAGCUGUCACAUGAAGUGTT against Fbxo38, inactive: 0.86; for GGAAAAAGAUCUUGGAAGUTT against Rwdd2, inactive: 1.47.

As for GCAGGUGAAACAAUCGCCUTT against Catnal1, the z-score is inactive: 1.59. On to CCUUGAGGAACCAACAAAATT against Rarb, for which the z-score is inactive: 1.44. On to “GGCACAUGAGACAGCUUUUTT against 1810008O21Rik”, for which the z-score was inactive: -1.23.

On to “GGAGGCUAGACCUGUUUUUTT against 4932414J04”, for which the z-score is inactive: 1.3. With CGUGGUUUGUCAAUGAAGGTT against Eprs, the z-score was inactive: -2.54. In the case of GGAGGUGGAGUUCAUCUUUTT against Chrne, the z-score is inactive: 2.3. GGGUGUCAUAUAUAUUGCUTT against Gpr83: the z-score is inactive: 0.32. For GGCUGAUAGGUGUAUCUGGTT against Trim11 the value was inactive: -0.0217; for “GGACAUUUUCCGUAGAUUUTT against 2600011C06Rik”, inactive: -2.5. As to CGGCAGACAGACCUAUGAUTT against Exosc9, the z-score was inactive: -0.189. In the case of CCUCAACUCCCUGUCACACTT against Rnaseh2a, the z-score was inactive: 1.24. With GGAUGCUAUACAUUUCUACTT against Stip1, the z-score was inactive: -0.971. As to “GGGAGAAGUGUAACAAAUUTT against A830093M07”, the z-score was inactive: -0.264.

With CCAGGAACGCACUUUGUCATT against Zfp469, the z-score was inactive: 2.46. As for GGAAUUUCUUAUCCUCAUGTT against Cyp2c29, the z-score is inactive: -0.35.

As to CCCGUGCUGAAGCUAAUAGTT against BC021917, the z-score was inactive: -2.01. For “CCAUGACAUUUCCUAAGUUTT against B130022O04Rik” the value was inactive: -2.2; for “CGCAGGUGUACAUAGCAGUTT against C130050O18Rik”, inactive: -0.34. For the sequence CGAUGUCAUCUUAGCUACGTT against B3gnt6, the z-score is inactive: 0.965. On to GGUGAUCAGACUAUCAGCUTT against Olfr1384, for which the z-score is inactive: 0.19. As for “GCCAAUCAAGCACUCGCUCTT against 4930401F20Rik”, the z-score is inactive: 0.688. For CCUUUGAAAACCUACAAGUTT against Ppara the value was inactive: 0.237; for GCGGCUUCAUUUCAAGCUGTT against Lnx2, inactive: 1.3; for GCCAAUCAACUGAUGGCUUTT against Pax3, inactive: 0.675.

Regarding GGAAACCUGUCCAGUUCUUTT against Slc38a5, the z-score was inactive: -0.36. Turning to “GGCUCUAUUCAAUGCUAUUTT against A130033B22”, the z-score is inactive: -0.554. For GUCUGUCAUUUGUGGAAAUTT against Olfr1495 the value was inactive: 0.191; for GGCUUUUGCUGCUAGAGGUTT against BC059842, inactive: -0.371; for GCAUGCUUAAGCCUAUAAATT against Ncstn, inactive: 0.0957. As to GGUGACCAACUCUAUCAGGTT against Pglyrp1, the z-score was inactive: 0.189.

With “GCCCAGAAUAGACAAACCGTT against 9230106L14Rik”, the z-score was inactive: -0.881. “GGAGAAAGAAGCCUCUCCATT against B430216B18Rik”: the z-score was inactive: 0.871. Regarding GCGAGACUAUCAAAUCUAUTT against Gabra4, the z-score is inactive: 0.85. For the sequence GGAUAAGGAAGGAAUUCCUTT against Rps27a, the z-score was inactive: -2.93. As to CCCUCAAGAGACCCAAAUUTT against Xrcc1, the z-score is inactive: -2.81. For “GCCUUAGGGAGUGUUAAAATT against C630041L24Rik” the value was inactive: -0.455; for GGCCAUUAAAUUUAUCAACTT against Aldh3a1, inactive: 0.155. In the case of CCUUACCACUUGAAGAUGGTT against Ephx1, the z-score is inactive: -0.995. “GGUUUUGAAAUUCCAGAAUTT against 4632412I24Rik”: the z-score was inactive: 0.641. In the case of GGAUGCAUAUUAAAGAAACTT against Gabrb3, the z-score was inactive: -0.318. As for “GCACGGUAUCUCGAAGUCGTT against 1700067I02Rik”, the z-score is inactive: 0.65.

For “GCGAUUUCAUAAAGUAAACTT against 1110059G10Rik”, the z-score was inactive: 0.427. Regarding CCUCCUGACUACAAGAACUTT against Utp14a, the z-score is inactive: 0.335. Take “GGAGAUAAUGAAAACUGCUTT against 1700006C19Rik”: the z-score was inactive: 0.503. For GGCGGCAAGCAACAACAAUTT against Ssbp1, the z-score is inactive: 1.58. As for GGAAAAAGAGCUUUUGGUCTT against Piwil2, the z-score was inactive: 1.41.

GCAAGGUCCUUAACGGCAATT against Inpp1: the z-score was inactive: 0.756. As to GGAUGAGGCGAUUGAGAUUTT against Clic6, the z-score is inactive: -0.612. For the sequence “GCCUAUAGCACUGUGCCAUTT against 2810004A10Rik”, the z-score was inactive: 1.17.

With CCCAUGAAGAUUGUAAGUCTT against C78541, the z-score was inactive: 0.134. In the case of GCCGAGUUACAUCGGUGAUTT against Nup93, the z-score is inactive: 0.557.

Take GCCUUUUUAACCAACACAUTT against Gphn: the z-score is inactive: 1.08. On to GCUGGGAUGGUAUCGUUUCTT against Ripk2, for which the z-score is inactive: -0.339. For GCACCAAAUUCACUAGAGUTT against Cd24a the value was inactive: -0.279; for GGCCAUGAACUUUGAAGAGTT against Uap1, inactive: 0.946.

In the case of GGUUGAUGACAACAAGAAATT against Rps12, the z-score is inactive: -2.95. In the case of CCAUUUGGGACUAUAGACGTT against Tnrc4, the z-score is inactive: -0.467. With “GGCCUGGCACCUCAUAUUATT against 6030411K04Rik”, the z-score was inactive: -2.16. Take “GGCCAGUCUGGGAUUUUUGTT against 1700084P21Rik”: the z-score is inactive: 0.642. For GGCCAUUUGUAUGUGCACCTT against Tgfbr1 the value was inactive: 2.08; for “GGAACAGCAUCGUAACUAUTT against 4732435N03Rik”, inactive: -0.0465. On to “GGAAAGCAAUACAAUCAAATT against 1110007M04Rik”, for which the z-score is inactive: 0.777. In the case of “CCUUACCAAUGUUCAUUUATT against C130057D23Rik”, the z-score was inactive: 0.972.

Take GGCUUUUGAAGCCAUCAAGTT against Mrp63: the z-score is inactive: 0.863. On to “GCAAAGGAACGAGUUUGAGTT against 1110017I16Rik”, for which the z-score was inactive: 0.166.
